According to patent US6602826B1, “Heterocyclically substituted aromatic amino compounds with a herbicidal effect” (Bayer Aktiengesellschaft, priority 1997, dated 2003):
Some entries share one result that the patent states for a list of compounds. Some compounds share one range, which may span the group rather than tell each member.

Experiments:
Type in all cases: in vivo
Cyperus [1] = test: Pre-emergence test; conditions: application rates between 250 and 750 g/ha, scored after three weeks vs untreated control
Setaria [2] = test: Pre-emergence test; conditions: application rates between 250 and 750 g/ha, scored after three weeks vs untreated control
Abutilon = test: Pre-emergence test; conditions: application rates between 250 and 750 g/ha, scored after three weeks vs untreated control
Amaranthus [3] = test: Pre-emergence test; conditions: application rates between 250 and 750 g/ha, scored after three weeks vs untreated control
Galium = test: Pre-emergence test; conditions: application rates between 250 and 750 g/ha, scored after three weeks vs untreated control
Sinapis = test: Pre-emergence test; conditions: application rates between 250 and 750 g/ha, scored after three weeks vs untreated control
Ipomoea = test: Pre-emergence test; conditions: application rates between 250 and 750 g/ha, scored after three weeks vs untreated control
Avena fatua = test: Post-emergence test; conditions: application rates of 15-750 g/ha, scored after three weeks vs untreated control, 0% = no action, 100% = total destruction
Cyperus [4] = test: Post-emergence test; conditions: application rates of 15-750 g/ha, scored after three weeks vs untreated control
Setaria [5] = test: Post-emergence test; conditions: application rates of 15-750 g/ha, scored after three weeks vs untreated control
Amaranthus [6] = test: Post-emergence test; conditions: application rates of 15-750 g/ha, scored after three weeks vs untreated control
Chenopodium = test: Post-emergence test; conditions: application rates of 15-750 g/ha, scored after three weeks vs untreated control
Matricaria = test: Post-emergence test; conditions: application rates of 15-750 g/ha, scored after three weeks vs untreated control
Polygonum = test: Post-emergence test; conditions: application rates of 15-750 g/ha, scored after three weeks vs untreated control
Viola = test: Post-emergence test; conditions: application rates of 15-750 g/ha, scored after three weeks vs untreated control
wheat = test: Post-emergence test (crop tolerance); conditions: application rates of 15-750 g/ha, scored after three weeks vs untreated control

SMILES	degree of damage to the plants, Cyperus (Cyperus [1])	degree of damage to the plants, Setaria (Setaria [2])	degree of damage to the plants, Abutilon (Abutilon)	degree of damage to the plants, Amaranthus (Amaranthus [3])	degree of damage to the plants, Galium (Galium)	degree of damage to the plants, Sinapis (Sinapis)	degree of damage to the plants, Ipomoea (Ipomoea)	degree of damage to the plants, Avena fatua (Avena fatua)	degree of damage to the plants, Cyperus (Cyperus [4])	degree of damage to the plants, Setaria (Setaria [5])	degree of damage to the plants, Amaranthus (Amaranthus [6])	degree of damage to the plants, Chenopodium (Chenopodium)	degree of damage to the plants, Matricaria (Matricaria)	degree of damage to the plants, Polygonum (Polygonum)	degree of damage to the plants, Viola (Viola)	degree of damage to the plants, wheat (crop plant, tolerated well) (wheat)
Cn1c(C(F)(F)F)cc(=O)n(-c2ccc(Cl)cc2NC(=O)C(C)(C)C)c1=O [Example 18]	70-100%	90-100%	70-100%	90-100%	90-100%	95-100%	95-100%	80-95%	90-95%	95-100%	95-100%	95-100%	95-100%	95-100%	90-100%	5-10%
Cn1c(C(F)(F)F)cc(=O)n(-c2ccc(Cl)cc2NC(=O)C2CC2)c1=O [Example 19]	70-100%	90-100%	70-100%	90-100%	90-100%	95-100%	95-100%	80-95%	90-95%	95-100%	95-100%	95-100%	95-100%	95-100%	90-100%	5-10%
CC(=O)Nc1cc(Cl)ccc1-n1c(=O)cc(C(F)(F)F)n(C)c1=O [Example 20]	70-100%	90-100%	70-100%	90-100%	90-100%	95-100%	95-100%	80-95%	90-95%	95-100%	95-100%	95-100%	95-100%	95-100%	90-100%	5-10%
Cn1c(C(F)(F)F)cc(=O)n(-c2ccc(Cl)cc2NC(=O)c2ccc(Cl)cc2)c1=O [Example 23]	70-100%	90-100%	70-100%	90-100%	90-100%	95-100%	95-100%	80-95%	90-95%	95-100%	95-100%	95-100%	95-100%	95-100%	90-100%	5-10%
CC(C)C(=O)Nc1cc(Cl)ccc1-n1c(=O)cc(C(F)(F)F)n(C)c1=O [Example 24]	70-100%	90-100%	70-100%	90-100%	90-100%	95-100%	95-100%	80-95%	90-95%	95-100%	95-100%	95-100%	95-100%	95-100%	90-100%	5-10%
CCNC(=S)Nc1ccccc1-n1c(=O)n(C2CC2)c(=O)n1C [Example 102]	70-100%	90-100%	70-100%	90-100%	90-100%	95-100%	95-100%	80-95%	90-95%	95-100%	95-100%	95-100%	95-100%	95-100%	90-100%	5-10%
